Measured values published in US6472541B2, “Protecting groups with increased photosensitivities” (The Regents of the University of California, priority 1998, dated 2002).

Assay: Glutamate released from compound 7 upon photolysis, quantified as fluorescamine derivative by HPLC
Format: physicochemical
Conditions: 100 μM 7, pH 7.2 KMOPS, 365 nm irradiation

## O=C(O)CC[C@H](NC(=O)OCc1cc(=O)oc2cc(O)c(Br)cc12)C(=O)O [Compound 7, N-(6-Bromo-7-hydroxycoumarin-4-yl)methoxycarbonyl glutamate]
30 seconds
  Yield of glutamate: 27.6%
60 seconds
  Yield of glutamate: 52.7%
90 seconds
  Yield of glutamate: 74.5%
120 seconds
  Yield of glutamate: 98.7%
